These are yes or no findings as the source states them, for the method shown.
How the values were obtained:
[1] = target: T1, human ferroptosis suppressive protein 1 (human), Q9BRQ8; test: crystal structure; hFSP1 with 6-OH-FAD and NADH, 1.75 Å, space group P 65 2 2; one molecule in the asymmetric unit; both purified; settings: remark: other sources report otherwise
T1 chain: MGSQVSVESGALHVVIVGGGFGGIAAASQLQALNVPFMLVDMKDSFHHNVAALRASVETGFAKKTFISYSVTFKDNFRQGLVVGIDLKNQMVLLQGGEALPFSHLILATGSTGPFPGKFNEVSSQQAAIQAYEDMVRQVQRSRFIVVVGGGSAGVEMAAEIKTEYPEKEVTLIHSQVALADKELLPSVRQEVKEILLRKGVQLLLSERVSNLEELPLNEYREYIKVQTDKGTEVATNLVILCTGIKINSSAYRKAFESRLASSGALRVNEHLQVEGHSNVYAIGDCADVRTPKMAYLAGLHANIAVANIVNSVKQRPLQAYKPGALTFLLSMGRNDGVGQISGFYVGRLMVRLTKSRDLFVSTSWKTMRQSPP

[2] = target: T1, human ferroptosis suppressive protein 1 …; test: SEC; Superdex 200 10/300 GL, 25 mM Tris-HCl pH 8.0, 150 mM NaCl, 2 mM DTT; oligomeric state judged from the elution volume; both purified; settings: remark: other sources report otherwise

B1: human ferroptosis suppressive protein 1, Q9BRQ8 1-373 (enzyme)
chain: MGSQVSVESGALHVVIVGGGFGGIAAASQLQALNVPFMLVDMKDSFHHNVAALRASVETGFAKKTFISYSVTFKDNFRQGLVVGIDLKNQMVLLQGGEALPFSHLILATGSTGPFPGKFNEVSSQQAAIQAYEDMVRQVQRSRFIVVVGGGSAGVEMAAEIKTEYPEKEVTLIHSQVALADKELLPSVRQEVKEILLRKGVQLLLSERVSNLEELPLNEYREYIKVQTDKGTEVATNLVILCTGIKINSSAYRKAFESRLASSGALRVNEHLQVEGHSNVYAIGDCADVRTPKMAYLAGLHANIAVANIVNSVKQRPLQAYKPGALTFLLSMGRNDGVGQISGFYVGRLMVRLTKSRDLFVSTSWKTMRQSPP
binding [1]: no binding | binding [2]: no binding

From publication PMC10896247
